Experimental data reported in patent US20160362463A1, “Pharmaceutical composition inhibiting interaction between MZF-1 and Elk-1” (China Medical University, priority 2015, published 2016).
No constants are given. Whether binding was seen depends on the method and setting. Binding seen in cells or lysates may run through a third protein. Some results given as binding are weak or reduced against the parent protein; the word gives no strength. For part of these data: Sequences can lack the tags named with a protein.

Protein sequences, listed by entry. Tags and fused reporters are not part of them. Lines headed by an entry give the natural chain unless they say otherwise; changes in a name come on top. Chains listed by the source or under a name are the forms on record and can include a tag or linker.
MZF-1-c-Myc (amino acids 1-485) (P28698-2, form named): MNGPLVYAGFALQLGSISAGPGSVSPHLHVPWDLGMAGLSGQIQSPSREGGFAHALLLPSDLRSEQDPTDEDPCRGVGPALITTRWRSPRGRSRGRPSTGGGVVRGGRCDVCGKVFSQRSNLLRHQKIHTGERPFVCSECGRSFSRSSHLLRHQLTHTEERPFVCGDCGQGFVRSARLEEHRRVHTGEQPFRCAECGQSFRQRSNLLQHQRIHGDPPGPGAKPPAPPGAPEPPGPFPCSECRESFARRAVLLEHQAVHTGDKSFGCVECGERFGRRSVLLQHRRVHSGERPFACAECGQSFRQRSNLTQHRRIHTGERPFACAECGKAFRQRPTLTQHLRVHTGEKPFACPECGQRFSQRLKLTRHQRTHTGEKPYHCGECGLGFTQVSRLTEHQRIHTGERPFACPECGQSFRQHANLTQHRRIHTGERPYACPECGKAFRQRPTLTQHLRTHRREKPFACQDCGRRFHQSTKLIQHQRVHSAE
MZF-1-c-Myc fragment, amino acids 1-72 (P28698-2, form named): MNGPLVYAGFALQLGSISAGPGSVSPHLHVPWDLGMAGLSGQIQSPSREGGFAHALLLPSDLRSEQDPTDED
MZF-1-c-Myc fragment, amino acids 1-141 (P28698-2, form named): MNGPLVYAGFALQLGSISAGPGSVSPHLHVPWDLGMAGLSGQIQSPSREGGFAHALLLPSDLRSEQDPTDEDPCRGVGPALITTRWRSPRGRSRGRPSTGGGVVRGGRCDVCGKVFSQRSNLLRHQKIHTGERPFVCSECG

B1: Elk-1-c-Myc (amino acids 1-428) (protein, human, UniProt P19419 1-428, looked up, not shown: small tags and cut ends)
chain: MDPSVTLWQFLLQLLREQGNGHIISWTSRDGGEFKLVDAEEVARLWGLRKNKTNMNYDKLSRALRYYYDKNIIRKVSGQKFVYKFVSYPEVAGCSTEDCPPQPEVSVTSTMPNVAPAAIHAAPGDTVSGKPGTPKGAGMAGPGGLARSSRNEYMRSGLYSTFTIQSLQPQPPPHPRPAVVLPSAAPAGAAAPPSGSRSTSPSPLEACLEAEEAGLPLQVILTPPEAPNLKSEELNVEPGLGRALPPEVKVEGPKEELEVAGERGFVPETTKAEPEVPPQEGVPARLPAVVMDTAGQAGGHAASSPEISQPQKGRKPRDLELPLSPSLLGGPGPERTPGSGSGSGLQAPGPALTPSLLPTHTLTPVLLTPSSLPPSIHFWSTLSPIAPRSPAKLSFQFPSSGSAQVHIPSISVDGLSTPVVLSPGPQKP
B2: Elk-1-c-Myc fragment, amino acids 87-325 (protein, human, UniProt P19419 87-325, looked up, not shown: small tags and cut ends)
chain: SYPEVAGCSTEDCPPQPEVSVTSTMPNVAPAAIHAAPGDTVSGKPGTPKGAGMAGPGGLARSSRNEYMRSGLYSTFTIQSLQPQPPPHPRPAVVLPSAAPAGAAAPPSGSRSTSPSPLEACLEAEEAGLPLQVILTPPEAPNLKSEELNVEPGLGRALPPEVKVEGPKEELEVAGERGFVPETTKAEPEVPPQEGVPARLPAVVMDTAGQAGGHAASSPEISQPQKGRKPRDLELPLSP
B3: Elk-1-c-Myc fragment, amino acids 145-428 (protein, human, UniProt P19419 145-428, looked up, not shown: small tags and cut ends)
chain: LARSSRNEYMRSGLYSTFTIQSLQPQPPPHPRPAVVLPSAAPAGAAAPPSGSRSTSPSPLEACLEAEEAGLPLQVILTPPEAPNLKSEELNVEPGLGRALPPEVKVEGPKEELEVAGERGFVPETTKAEPEVPPQEGVPARLPAVVMDTAGQAGGHAASSPEISQPQKGRKPRDLELPLSPSLLGGPGPERTPGSGSGSGLQAPGPALTPSLLPTHTLTPVLLTPSSLPPSIHFWSTLSPIAPRSPAKLSFQFPSSGSAQVHIPSISVDGLSTPVVLSPGPQKP

biological target: T1, endogenous Elk-1 (Ets-like protein-1) (human) (UniProt P19419); experiment: co-immunoprecipitation of endogenous proteins
T1 sequence (looked up): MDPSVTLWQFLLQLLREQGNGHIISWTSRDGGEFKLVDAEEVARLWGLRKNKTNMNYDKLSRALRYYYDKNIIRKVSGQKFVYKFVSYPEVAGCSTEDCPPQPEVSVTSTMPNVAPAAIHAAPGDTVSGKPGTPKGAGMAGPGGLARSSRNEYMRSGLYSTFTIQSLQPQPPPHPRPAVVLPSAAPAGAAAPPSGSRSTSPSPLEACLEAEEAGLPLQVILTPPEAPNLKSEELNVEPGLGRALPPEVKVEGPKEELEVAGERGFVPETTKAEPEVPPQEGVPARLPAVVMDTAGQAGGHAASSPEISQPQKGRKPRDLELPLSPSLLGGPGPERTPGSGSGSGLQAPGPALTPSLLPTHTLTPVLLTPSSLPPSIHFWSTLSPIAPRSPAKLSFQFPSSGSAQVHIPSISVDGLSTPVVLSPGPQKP

binding, binds:
endogenous MZF-1 (myeloid zinc finger 1) (from UniProt P28698 1-485)

biological target: T2, FLAG-MZF-1 (amino acids 1-485) (human, UniProt P28698-2 1-485); experiment: co-immunoprecipitation, HEK-293 cells co-transfected with FLAG-MZF-1
T2 construct: range 1-485; Full-length MZF-1 expressed in HEK-293 cells; not shown: FLAG tag

binding, binds:
B1
B2
B3
LARSSRNEYMRSG (peptide, UniProt P19419 145-157, looked up, not shown: small tags and cut ends) [Elk-1-c-Myc fragment, amino acids 145-157]

biological target: T3, FLAG-Elk-1 (amino acids 1-428) (human, UniProt P19419 1-428); experiment: co-immunoprecipitation (anti-c-Myc IP, anti-FLAG blot), HEK-293 cells
T3 construct: range 1-428; Full-length Elk-1 expressed in HEK-293 cells; not shown: FLAG tag
T3 sequence (looked up): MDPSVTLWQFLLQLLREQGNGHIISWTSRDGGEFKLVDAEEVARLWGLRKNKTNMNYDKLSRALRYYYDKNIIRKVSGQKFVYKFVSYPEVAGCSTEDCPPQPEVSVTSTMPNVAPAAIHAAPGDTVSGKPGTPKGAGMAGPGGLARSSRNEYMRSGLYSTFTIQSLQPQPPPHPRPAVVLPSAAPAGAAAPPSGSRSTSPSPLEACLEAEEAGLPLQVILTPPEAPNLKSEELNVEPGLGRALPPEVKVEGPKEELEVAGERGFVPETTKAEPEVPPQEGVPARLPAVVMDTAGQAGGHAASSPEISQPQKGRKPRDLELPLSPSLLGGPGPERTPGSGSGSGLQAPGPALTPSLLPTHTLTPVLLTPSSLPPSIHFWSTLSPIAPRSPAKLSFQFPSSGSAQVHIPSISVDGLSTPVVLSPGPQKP

binding, binds:
MZF-1-c-Myc fragment, amino acids 1-72 (from UniProt P28698 1-72)
MZF-1-c-Myc fragment, amino acids 1-141 (from UniProt P28698 1-141)
MZF-1-c-Myc (amino acids 1-485) (from UniProt P28698 1-485)
SDLRSEQDPTDED (peptide, UniProt P28698-2 60-72, looked up, not shown: small tags and cut ends) [MZF-1-c-Myc fragment, amino acids 60-72]
